According to article PMC4848862:
These are yes or no findings as the source states them, for the method shown. Binding seen in cells or lysates may run through a third protein. Some entries that bind do so weakly or less than the wild type.

Protein sequences, listed by entry. Tags and fused reporters are not part of them.
UniProt P49950: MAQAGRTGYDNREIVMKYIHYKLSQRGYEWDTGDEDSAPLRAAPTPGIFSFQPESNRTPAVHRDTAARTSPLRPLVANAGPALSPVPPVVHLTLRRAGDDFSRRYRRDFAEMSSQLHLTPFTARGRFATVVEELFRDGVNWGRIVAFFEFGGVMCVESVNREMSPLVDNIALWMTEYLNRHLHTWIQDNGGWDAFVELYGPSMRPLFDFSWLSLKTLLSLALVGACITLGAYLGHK
UniProt Q91XJ1: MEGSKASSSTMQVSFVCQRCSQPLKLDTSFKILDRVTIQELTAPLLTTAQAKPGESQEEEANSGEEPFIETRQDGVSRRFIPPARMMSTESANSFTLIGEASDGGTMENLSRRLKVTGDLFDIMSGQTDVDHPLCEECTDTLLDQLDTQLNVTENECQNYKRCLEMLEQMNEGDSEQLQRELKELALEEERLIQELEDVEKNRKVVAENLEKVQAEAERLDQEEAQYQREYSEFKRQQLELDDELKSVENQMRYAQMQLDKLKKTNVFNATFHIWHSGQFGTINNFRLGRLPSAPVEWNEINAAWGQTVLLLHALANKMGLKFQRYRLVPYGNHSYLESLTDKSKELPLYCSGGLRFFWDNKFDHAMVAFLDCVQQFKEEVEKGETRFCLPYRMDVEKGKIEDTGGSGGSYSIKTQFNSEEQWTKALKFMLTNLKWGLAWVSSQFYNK

Biological target: B cell lymphoma 2 (Bcl-2) protein (rat (endogenous in rat heart)) (UniProt P49950)
Test: co-IP; whole heart lysate of control, diabetic and diabetic + trimetazidine rats, precleared with protein A/G sepharose, incubated overnight at 4 °C with the indicated antibodies, beads washed five times, immunoblot; which protein was precipitated is not told

Substance: Beclin 1 (from UniProt Q91XJ1 1-448)
- binding: binds
